Laboratory results reported in publication doi:10.1101/2020.04.17.046342.
No constants are given. Whether binding was seen depends on the method and setting. In cells and extracts the contact can be indirect. Some results given as binding are weak or reduced against the parent protein; the word gives no strength. For some of these results: Where a sequence is shown, tags or fusion partners need not be part of it.

Sequences of proteins named here, by UniProt entry; tags and fusion partners are left off.
UniProt P47239: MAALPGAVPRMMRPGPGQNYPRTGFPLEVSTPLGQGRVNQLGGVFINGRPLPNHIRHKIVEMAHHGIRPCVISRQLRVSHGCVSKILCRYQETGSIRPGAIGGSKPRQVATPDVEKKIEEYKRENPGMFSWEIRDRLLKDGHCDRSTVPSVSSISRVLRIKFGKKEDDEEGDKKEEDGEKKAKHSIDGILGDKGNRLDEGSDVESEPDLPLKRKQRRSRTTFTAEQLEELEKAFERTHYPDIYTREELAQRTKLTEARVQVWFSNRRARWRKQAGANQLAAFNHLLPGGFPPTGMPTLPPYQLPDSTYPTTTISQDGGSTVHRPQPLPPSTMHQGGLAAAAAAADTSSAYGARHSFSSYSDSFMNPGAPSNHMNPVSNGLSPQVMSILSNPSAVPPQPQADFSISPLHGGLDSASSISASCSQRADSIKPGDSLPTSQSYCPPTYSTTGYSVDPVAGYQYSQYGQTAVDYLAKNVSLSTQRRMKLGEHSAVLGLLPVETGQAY
UniProt P10085: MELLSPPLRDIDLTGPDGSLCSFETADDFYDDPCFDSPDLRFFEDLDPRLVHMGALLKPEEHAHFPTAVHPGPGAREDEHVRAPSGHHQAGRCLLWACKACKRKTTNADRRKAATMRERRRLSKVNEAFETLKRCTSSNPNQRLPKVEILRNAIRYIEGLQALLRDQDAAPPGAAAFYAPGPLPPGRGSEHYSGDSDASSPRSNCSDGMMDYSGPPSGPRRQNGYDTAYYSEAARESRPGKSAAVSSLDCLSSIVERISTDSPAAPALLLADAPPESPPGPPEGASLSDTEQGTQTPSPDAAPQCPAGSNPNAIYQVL

T1: Flag-tagged KDM2B (pCMV-3xFlag-KDM2B) (UniProt Q8NHM5)
T1 sequence: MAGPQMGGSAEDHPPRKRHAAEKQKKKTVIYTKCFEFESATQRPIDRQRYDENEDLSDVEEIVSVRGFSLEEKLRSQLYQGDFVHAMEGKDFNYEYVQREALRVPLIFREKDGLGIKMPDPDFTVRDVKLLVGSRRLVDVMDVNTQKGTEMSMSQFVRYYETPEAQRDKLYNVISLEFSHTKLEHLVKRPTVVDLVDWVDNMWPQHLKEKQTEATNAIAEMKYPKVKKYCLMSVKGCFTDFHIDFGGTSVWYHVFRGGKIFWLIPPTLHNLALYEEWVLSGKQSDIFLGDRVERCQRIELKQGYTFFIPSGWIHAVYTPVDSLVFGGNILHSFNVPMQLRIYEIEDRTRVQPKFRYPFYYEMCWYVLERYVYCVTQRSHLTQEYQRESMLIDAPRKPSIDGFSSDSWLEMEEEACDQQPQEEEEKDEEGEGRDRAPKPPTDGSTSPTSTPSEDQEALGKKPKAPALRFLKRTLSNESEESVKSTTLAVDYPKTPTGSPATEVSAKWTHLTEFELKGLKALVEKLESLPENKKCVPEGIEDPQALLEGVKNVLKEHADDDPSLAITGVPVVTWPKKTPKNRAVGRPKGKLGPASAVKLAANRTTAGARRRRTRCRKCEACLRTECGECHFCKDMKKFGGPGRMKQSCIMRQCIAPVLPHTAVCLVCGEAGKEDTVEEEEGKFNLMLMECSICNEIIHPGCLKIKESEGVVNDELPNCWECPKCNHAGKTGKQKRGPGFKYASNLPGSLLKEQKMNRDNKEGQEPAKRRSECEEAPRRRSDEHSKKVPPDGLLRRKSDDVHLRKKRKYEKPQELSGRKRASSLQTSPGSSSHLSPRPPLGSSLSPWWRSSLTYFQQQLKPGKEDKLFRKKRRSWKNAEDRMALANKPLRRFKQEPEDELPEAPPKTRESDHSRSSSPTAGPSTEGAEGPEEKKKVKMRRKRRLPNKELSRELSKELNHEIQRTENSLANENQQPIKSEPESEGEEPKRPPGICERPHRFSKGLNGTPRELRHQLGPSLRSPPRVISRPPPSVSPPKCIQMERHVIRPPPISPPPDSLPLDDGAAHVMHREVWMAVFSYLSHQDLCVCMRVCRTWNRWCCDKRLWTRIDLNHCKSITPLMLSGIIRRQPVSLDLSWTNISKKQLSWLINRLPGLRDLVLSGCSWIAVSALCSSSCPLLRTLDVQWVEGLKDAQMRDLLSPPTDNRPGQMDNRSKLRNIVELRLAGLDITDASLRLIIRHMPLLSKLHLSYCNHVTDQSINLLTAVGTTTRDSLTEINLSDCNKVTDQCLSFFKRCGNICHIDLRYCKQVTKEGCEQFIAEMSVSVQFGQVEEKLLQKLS

T2: HA-tagged SRF, full length (pCGN-SRF-HA) (UniProt P11831)
T2 sequence: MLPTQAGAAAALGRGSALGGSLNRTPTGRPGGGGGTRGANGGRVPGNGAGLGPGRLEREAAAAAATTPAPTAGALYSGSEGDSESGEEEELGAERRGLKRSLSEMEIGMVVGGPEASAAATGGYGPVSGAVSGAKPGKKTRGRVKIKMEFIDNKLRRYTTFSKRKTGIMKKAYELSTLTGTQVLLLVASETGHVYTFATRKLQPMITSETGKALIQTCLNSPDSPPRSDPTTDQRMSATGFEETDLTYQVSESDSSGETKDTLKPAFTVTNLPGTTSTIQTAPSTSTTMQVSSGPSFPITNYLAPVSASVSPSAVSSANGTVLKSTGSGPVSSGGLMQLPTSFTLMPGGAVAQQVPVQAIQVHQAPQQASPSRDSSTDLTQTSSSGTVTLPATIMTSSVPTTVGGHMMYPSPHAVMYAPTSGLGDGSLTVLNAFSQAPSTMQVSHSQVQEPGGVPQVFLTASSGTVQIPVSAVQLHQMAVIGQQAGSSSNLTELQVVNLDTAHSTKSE

T3: endogenous serum response factor (C2C12 cells) (mouse (endogenous in C2C12)) (UniProt Q9JM73)
T3 sequence: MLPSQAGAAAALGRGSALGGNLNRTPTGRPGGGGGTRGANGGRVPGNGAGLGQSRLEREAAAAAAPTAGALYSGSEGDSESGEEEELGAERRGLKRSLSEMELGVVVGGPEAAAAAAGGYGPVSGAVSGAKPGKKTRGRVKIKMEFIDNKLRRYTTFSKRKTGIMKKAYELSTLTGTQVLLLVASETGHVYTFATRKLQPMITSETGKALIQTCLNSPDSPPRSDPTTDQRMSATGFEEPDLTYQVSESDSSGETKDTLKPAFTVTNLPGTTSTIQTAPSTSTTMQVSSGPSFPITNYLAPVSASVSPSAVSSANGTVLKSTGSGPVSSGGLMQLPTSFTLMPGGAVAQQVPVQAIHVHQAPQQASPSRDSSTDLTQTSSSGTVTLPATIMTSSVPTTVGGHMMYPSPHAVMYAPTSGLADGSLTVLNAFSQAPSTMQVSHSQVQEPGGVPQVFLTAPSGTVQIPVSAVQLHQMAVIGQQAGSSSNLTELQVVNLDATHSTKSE

B1: Flag-tagged KDM2B (pCMV-3xFlag-KDM2B) (protein, UniProt Q8NHM5 1-1336)
chain: T1 sequence
B2: endogenous KDM2B (C2C12 cells) (protein, UniProt Q6P1G2 1-1309)
chain: MEAEKDSGRRLRAIDRQRYDENEDLSDVEEIVSVRGFSLEEKLRSQLYQGDFVHAMEGKDFNYEYVQREALRVPLVFRDKDGLGIKMPDPDFTVRDVKLLVGSRRLVDVMDVNTQKGTEMSMSQFVRYYETPEAQRDKLYNVISLEFSHTKLEHLVKRPTVVDLVDWVDNMWPQHLKEKQTEATNALAEMKYPKVKKYCLMSVKGCFTDFHIDFGGTSVWYHVFRGGKIFWLIPPTLHNLALYEEWVLSGKQSDIFLGDRVERCQRIELKQGYTFFIPSGWIHAVYTPVDSLVFGGNILHSFNVPMQLRIYEIEDRTRVQPKFRYPFYYEMCWYVLERYVYCVTQRSYLTQEYQRELMLIDAPRKTSVDGFSSDSWLDMEEESCEQQPQEEEEEEEDKEEEGDGADKTPKPPTDDPTSPTSTPPEDQDSTGKKPKAPAIRFLKRTLSNESEESVKSTSMPTDDPKTPTGSPATEVSTKWTHLTEFELKGLKALVEKLESLPENKKCVPEGIEDPQALLEGVKNVLKEHVDDDPTLAITGVPVVSWPKKTAKNRVVGRPKGKLGPASAVKLAANRTTAGARRRRTRCRKCEACLRTECGECHFCKDMKKFGGPGRMKQSCIMRQCIAPVLPHTAVCLVCGEAGKEDTVEEEEGKFNLMLMECSICNEIIHPGCLKIKESEGVVNDELPNCWECPKCNHAGKTGKQKRGPGFKYASNLPGSLLKEQKMNRDNKEGQEPAKRRSECEEAPRRRSDEHPKKVPADGILRRKSDDVHLRRKRKYEKPQELSGRKRASSLQTSPGSSSHLSPRPPLGSSLSPWWRSSLTYFQQQLKPGKEDKLFRKKRRSWKNAEDRLSLANKPLRRFKQEPEDDLPEAPPKTRESDQSRSSSPTAGPSTEGAEGPEEKKKVKMRRKRRLVNKELSKELSKELNHEIQKTESTLAHESQQPIKSEPESENDEPKRPLSHCERPHRFSKGLNGTPRELRHSLGPGLRSPPRVMSRPPPSASPPKCIQMERHVIRPPPISPPPDSLPLDDGAAHVMHREVWMAVFSYLSHRDLCVCMRVCRTWNRWCCDKRLWTRIDLNRCKSITPLMLSGIIRRQPVSLDLSWTNISKKQLSWLINRLPGLRDLVLSGCSWIAVSALCSSSCPLLRTLDVQWVEGLKDAQMRDLLSPPTDNRPGQMDNRSKLRNIVELRLAGLDITDVSLRLIIRHMPLLSKLQLSYCNHINDQSINLLTAVGTTTRDSLTEVNLSDCNKVTDLCLSFFKRCGNICHIDLRYCKQVTKEGCEQFIAEMSVSVQFGQVEEKLLQKLS
B3: endogenous SET7 (C2C12 cells) (enzyme, UniProt Q8VHL1 1-366)
chain: MDSDDEVVEEAVEGHLDDDGLPHGFCTVTYSSTDRFEGNFVHGEKNGRGKFFFFDGSTLEGYYVDDALQGQGVYTYEDGGVLQGTYVDGELNGPAQEYDSDGRLIFKGQYKDNNRHGVCWIHYPDGGSLVGEVNEDGEMTGEKIAYVYPDQRTALYGKFIDGEMLEGKLATLMATEEGRPHFEVTSGSSVYHFDKSTSSCISSDALLPDPYESERVYVADSLISSAGEGLFSKVAVGPNTVMSFYNGVRITHQEVDSRDWALNGNTLSLDEETVIDVPEPYNHVSKYCASLGHKANHSFTPNCVYDLFVHPRFGPIKCIRTLRAVEAEEELTVAYGYDHSPPGKSGPEAPEWYQVELKAFQATQQK

How the values were obtained:
Experiment in all cases: co-IP
[1] = molecular target: T1, Flag-tagged KDM2B (pCMV-3xFlag-KDM2B)
[2] = molecular target: T2, HA-tagged SRF, full length (pCGN-SRF-HA)
[3] = molecular target: T3, endogenous serum response factor (C2C12 cells) (mouse (endogenous in C2C12))

Molecule	binding [1]	also measured
SRF-C, SRF C domain-containing region (amino acids 222 to 508) (from UniProt P11831 222-508) (domain or fragment)	no binding	
exogenous Pax7 (pcDNA3-HA-Pax7) (from UniProt P47239 1-503)	binds	
exogenous MyoD (pHM6-HA-MyoD) (from UniProt P10085 1-318)	binds	
SRF-A, SRF A domain-containing region (amino acids 1 to 133) (from UniProt P11831 1-133) (domain or fragment)	no binding	
B1		binding [2]: binds
B2		binding [3]: binds
B3		binding [3]: binds
